5 molecules from article PMC10887741 can be followed below.

By UniProt entry, the sequences of proteins in these tests, tags left out.
UniProt Q8TCW9: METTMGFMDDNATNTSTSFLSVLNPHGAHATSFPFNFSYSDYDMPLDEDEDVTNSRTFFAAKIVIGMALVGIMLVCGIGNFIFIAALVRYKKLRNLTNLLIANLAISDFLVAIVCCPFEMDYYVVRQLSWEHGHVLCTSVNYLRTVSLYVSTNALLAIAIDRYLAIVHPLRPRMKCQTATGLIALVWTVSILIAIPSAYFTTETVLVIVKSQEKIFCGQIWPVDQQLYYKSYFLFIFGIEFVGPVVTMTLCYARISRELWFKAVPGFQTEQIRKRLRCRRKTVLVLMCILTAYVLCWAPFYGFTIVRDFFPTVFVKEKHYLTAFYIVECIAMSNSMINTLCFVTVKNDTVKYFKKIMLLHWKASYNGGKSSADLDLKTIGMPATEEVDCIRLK
UniProt Q8NFJ6: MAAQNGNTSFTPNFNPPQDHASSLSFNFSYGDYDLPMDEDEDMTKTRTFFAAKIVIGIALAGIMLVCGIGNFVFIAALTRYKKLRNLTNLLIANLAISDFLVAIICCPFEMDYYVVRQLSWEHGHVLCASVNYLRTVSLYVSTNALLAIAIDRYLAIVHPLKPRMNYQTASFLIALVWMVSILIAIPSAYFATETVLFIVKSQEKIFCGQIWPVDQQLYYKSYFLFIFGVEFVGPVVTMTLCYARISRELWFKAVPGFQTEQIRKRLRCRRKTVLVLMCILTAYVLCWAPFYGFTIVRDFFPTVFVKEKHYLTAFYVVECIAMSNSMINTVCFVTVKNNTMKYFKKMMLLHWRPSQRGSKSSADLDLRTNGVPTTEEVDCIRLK
UniProt P32121: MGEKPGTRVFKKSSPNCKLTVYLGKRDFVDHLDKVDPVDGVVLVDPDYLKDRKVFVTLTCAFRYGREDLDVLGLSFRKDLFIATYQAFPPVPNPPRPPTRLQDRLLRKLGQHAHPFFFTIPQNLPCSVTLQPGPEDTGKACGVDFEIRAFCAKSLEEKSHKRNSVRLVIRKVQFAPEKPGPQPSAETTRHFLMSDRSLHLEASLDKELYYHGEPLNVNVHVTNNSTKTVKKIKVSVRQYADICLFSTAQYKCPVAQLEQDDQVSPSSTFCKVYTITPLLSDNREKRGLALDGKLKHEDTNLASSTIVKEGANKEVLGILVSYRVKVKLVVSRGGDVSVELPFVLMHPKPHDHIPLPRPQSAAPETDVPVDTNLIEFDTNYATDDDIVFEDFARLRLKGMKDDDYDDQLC

No constants are given. Whether binding was seen depends on the method and setting. For some of these results: In cells and extracts the contact can be indirect. Some entries that bind do so weakly or less than the wild type. For some of these results: Tags and fused reporters may be left off the sequences shown.

Assay [1] concerns the target luminescent PKR1 (PKR1-rLuc) (UniProt Q8TCW9). As to the kind of experiment: FRET or BRET; BRET in CHO cells stably expressing rGFP-β-arrestin-2, transiently transfected with a constant amount of receptor-rLuc and increasing amounts of MRAP2 vector; 5 μM coelenterazine in PBS; without or with PK2.
Assay [2] addresses luminescent PKR2 (PKR2-rLuc) (UniProt Q8NFJ6). The description is as above.
For assay [3], the target named is T1, CT-MRAP2 (C-terminal domain of MRAP2, residues 78-204) (human) (UniProt Q96G30).
T1 sequence: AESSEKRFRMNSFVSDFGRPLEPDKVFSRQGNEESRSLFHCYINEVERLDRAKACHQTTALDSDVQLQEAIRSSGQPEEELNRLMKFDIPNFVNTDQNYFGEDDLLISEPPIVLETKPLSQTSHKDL
Briefly: co-IP; total proteins from E. coli co-expressing CT-MRAP2 FLAG and His-tagged β-arrestin-2 or p44; FLAG bind resin, native conditions; blots with anti-FLAG and anti-His.

The target of assay [4] is T2, hMRAP2-Glutathione S-Transferase (hMRAP2-GST) (human) (UniProt Q96G30).
T2 sequence: T1 sequence
As to the kind of experiment: pull-down; GST fusion protein held on glutathione-Sepharose beads, buffer A (PBS, 1% Nonidet P 40, 1 mM EDTA), incubated with purified His-tagged protein from E. coli; eluted with GSH, Western blot; both purified. A general note: Immunoblotting shows a protein as a band on a membrane.

In assay [5] the target is β-arrestin-2-GST fusion protein (UniProt P32121). Described as above.
The target of a further assay is WT PKR2 (UniProt Q8NFJ6). Briefly: cross-linking; CHO cells co-expressing MRAP2 and WT PKR2 or PKR2-ΔC52 incubated with dithiobis(succinimidyl propionate) (2 mM); membrane proteins on SDS-PAGE, blot with anti-PKR2.

On to “fluorescent β-arrestin-2 (GFP-β-arrestin-2) (from UniProt P32121 1-409)”, for which the binding entry in assay [1] and in assay [2] was “binds” throughout.
As for “β-arrestin-2 with His TAG (from UniProt P32121 1-409)”, the binding result in assay [3] and in assay [4] was “binds” throughout.

B1: 131CT-MRAP2 deletion mutant (domain or fragment, UniProt Q96G30 78-131)
chain: AESSEKRFRMNSFVSDFGRPLEPDKVFSRQGNEESRSLFHCYINEVERLDRAKA
Take B1: in assay [5], the binding entry is reported as “binds”.

B2: Melanocortin receptor accessory protein 2 (MRAP2) (protein, UniProt Q96G30 1-205)
chain: MSAQRLISNRTSQQSASNSDYTWEYEYYEIGPVSFEGLKAHKYSIVIGFWVGLAVFVIFMFFVLTLLTKTGAPHQDNAESSEKRFRMNSFVSDFGRPLEPDKVFSRQGNEESRSLFHCYINEVERLDRAKACHQTTALDSDVQLQEAIRSSGQPEEELNRLMKFDIPNFVNTDQNYFGEDDLLISEPPIVLETKPLSQTSHKDLD
On to B2, for which, in the assay with WT PKR2, the binding result is recorded as “binds”.

B3: CT-MRAP2 (C-terminal domain of MRAP2, residues 78-204) (domain or fragment, UniProt Q96G30 78-204)
chain: T1 sequence
Consider B3, for which the binding result in assay [5] is listed as “binds”.
